US20080260757A1
No constants are given. Whether binding was seen depends on the method and setting. Some entries that bind do so weakly or less than the wild type.

Chains of the proteins cited; added tags and fusions are not shown. Residues count along the entry.
UniProt P02768, residues 25-609: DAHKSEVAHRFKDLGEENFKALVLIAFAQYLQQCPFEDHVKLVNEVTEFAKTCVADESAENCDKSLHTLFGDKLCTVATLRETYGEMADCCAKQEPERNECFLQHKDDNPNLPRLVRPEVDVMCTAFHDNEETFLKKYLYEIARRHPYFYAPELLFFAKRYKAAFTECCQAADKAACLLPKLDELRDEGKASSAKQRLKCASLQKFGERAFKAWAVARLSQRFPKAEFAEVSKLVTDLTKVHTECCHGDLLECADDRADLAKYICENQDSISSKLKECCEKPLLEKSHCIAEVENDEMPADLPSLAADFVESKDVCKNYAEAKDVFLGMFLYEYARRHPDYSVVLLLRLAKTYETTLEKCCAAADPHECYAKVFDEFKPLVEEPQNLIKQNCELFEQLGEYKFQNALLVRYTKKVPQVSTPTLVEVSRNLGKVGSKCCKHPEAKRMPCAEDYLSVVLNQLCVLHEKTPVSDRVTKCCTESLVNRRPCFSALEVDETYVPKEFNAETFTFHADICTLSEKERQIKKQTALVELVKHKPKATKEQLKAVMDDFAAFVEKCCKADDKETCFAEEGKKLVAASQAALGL

Biological target: human serum albumin (human) (UniProt P02768)
Assay: sandwich ELISA on coated HSA, detection with anti-saporin antibody

B1: DOM7h-8/saporin non-covalent conjugate (protein)
VL: DIQMTQSPSSLSASVGDRVTITCRASQSISSYLNWYQQKPGKAPKLLIYRNSPLQSGVPSRFSGSGSGTDFTLTISSLQPEDFATYYCQQTYRVPPTFGQGTKVEIKC
**Q.** How did the binding turn out when B1 was run?
**A.** binds
